From article PMC13254535, “The RecBCD complex interacts directly with the DNA sliding clamp in Escherichia coli” (Nucleic Acids Research, 2026) come the findings set out here.

The chains behind the UniProt entries cited, without tags or fusion partners. Where a name states a change or a piece, a line headed by the entry shows the natural chain unless it says otherwise.
UniProt P0A988: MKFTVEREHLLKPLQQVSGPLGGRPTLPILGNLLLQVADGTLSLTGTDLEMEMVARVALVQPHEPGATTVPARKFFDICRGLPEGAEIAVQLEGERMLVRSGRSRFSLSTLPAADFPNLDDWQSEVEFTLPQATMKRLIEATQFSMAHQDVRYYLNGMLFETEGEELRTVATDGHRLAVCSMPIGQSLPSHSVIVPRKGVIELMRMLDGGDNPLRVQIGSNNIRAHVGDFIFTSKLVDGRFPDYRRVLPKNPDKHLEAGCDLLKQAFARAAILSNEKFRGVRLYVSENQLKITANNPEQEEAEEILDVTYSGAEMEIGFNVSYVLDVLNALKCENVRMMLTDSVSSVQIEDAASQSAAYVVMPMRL
UniProt P08394: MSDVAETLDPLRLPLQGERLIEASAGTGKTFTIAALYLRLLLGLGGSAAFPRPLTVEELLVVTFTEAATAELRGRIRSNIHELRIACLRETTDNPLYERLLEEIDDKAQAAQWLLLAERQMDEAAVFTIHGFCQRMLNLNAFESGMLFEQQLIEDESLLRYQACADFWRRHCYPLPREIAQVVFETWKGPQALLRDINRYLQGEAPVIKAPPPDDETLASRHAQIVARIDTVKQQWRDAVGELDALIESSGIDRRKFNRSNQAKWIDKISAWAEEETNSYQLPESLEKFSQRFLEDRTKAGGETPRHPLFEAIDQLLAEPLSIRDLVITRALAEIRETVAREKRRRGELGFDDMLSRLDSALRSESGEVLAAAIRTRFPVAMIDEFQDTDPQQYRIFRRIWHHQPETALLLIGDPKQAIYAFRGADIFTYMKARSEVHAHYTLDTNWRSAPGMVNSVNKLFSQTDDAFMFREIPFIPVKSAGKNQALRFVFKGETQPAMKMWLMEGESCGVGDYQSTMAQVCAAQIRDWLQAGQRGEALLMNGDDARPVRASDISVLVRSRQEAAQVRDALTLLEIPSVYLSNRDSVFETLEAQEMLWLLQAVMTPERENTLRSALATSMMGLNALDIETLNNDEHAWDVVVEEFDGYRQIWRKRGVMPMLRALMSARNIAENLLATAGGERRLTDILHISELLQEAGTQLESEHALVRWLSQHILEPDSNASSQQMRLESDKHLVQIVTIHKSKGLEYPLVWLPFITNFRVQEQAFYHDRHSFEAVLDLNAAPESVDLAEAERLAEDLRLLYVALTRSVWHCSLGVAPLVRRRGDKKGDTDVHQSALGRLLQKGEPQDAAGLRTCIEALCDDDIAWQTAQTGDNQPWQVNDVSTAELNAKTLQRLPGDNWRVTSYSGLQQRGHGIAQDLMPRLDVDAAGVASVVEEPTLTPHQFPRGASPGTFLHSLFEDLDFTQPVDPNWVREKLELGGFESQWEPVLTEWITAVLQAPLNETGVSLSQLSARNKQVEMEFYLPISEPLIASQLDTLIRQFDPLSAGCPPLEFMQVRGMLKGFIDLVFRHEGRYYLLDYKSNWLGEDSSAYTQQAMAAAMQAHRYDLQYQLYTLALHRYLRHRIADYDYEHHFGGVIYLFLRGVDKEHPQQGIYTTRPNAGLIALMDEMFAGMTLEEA

These are yes or no findings as the source states them, for the method shown.

This assay concerns the target β-clamp (DnaN)-T25 fusion from pKT25-dnaN (Escherichia coli) (UniProt P0A988). Briefly: two-hybrid; BACTH, qualitative X-gal spot (blue/white) assay on LB agar with IPTG and X-gal, 30°C, 2-3 days; an identical plate exposed to UV 15 J/m^2.

Take “RecB_(Δheli F1023A)–T18 fusion (from UniProt P08394) (domain or fragment)”: the binding entry is recorded as “no binding”.
